Source: PubChem BioAssay AID1671195 (Yale University, 2021)
In all, the deposit lists about 22,000 reagents; below is a random part of them. About 1,510 of them (6.9%) count as active. 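Active includes knockdowns raising or lowering LDL uptake; positive z-scores mean more uptake, negative mean less.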

Aim: 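Regulators of LDL receptor activity judged by labelled LDL uptake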 (primary screen)
System: human Huh7 hepatoma cells
Reagent: siRNA pool against human genes, 18 nM
Duration: about 2 to 2.5 days of knockdown, then 8 h LDL uptake
Conditions: DiI-labelled LDL at 30 µg/ml for 8 h, in lipoprotein-deficient serum medium
Read-out: 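Fluorescent LDL signal imaged in cells, scaled to the plate median, robust z-score for each replicate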
Direction: robust z-score: higher = more LDL uptake after knockdown
Active means: 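Active when two or more replicates show a robust z-score above 2 or below -2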

| Target gene | robust z-score, replicate 1 | robust z-score, replicate 2 | robust z-score, replicate 3 | Call |
| --- | --- | --- | --- | --- |
| ALPI | 0.351 | 0.123 | 0.388 | inactive |
| CUEDC2 | 0.0482 | -0.454 | 0.112 | inactive |
| BRD8 | -1.12 | -1.15 | -1.15 | inactive |
| PPP1R7 | 0.221 | 0.303 | -0.29 | inactive |
| PRPF18 | 0.332 | 1.42 | 1.08 | inactive |
| GNAQ | 0.0869 | -0.815 | -0.281 | inactive |
| TNFRSF4 | 0.0557 | 0.0282 | -0.0505 | inactive |
| ACTL11P | 0.147 | 0.0132 | 0.376 | inactive |
| TTLL6 | -0.519 | -0.228 | 0.029 | inactive |
| ENTPD6 | -0.129 | 1.14 | -0.0633 | inactive |
| ZNF485 | -1.21 | -1.05 | -1.13 | inactive |
| DDX54 | -0.312 | 0.117 | -0.191 | inactive |
| PAFAH1B1 | -1.26 | -1.13 | -1.2 | inactive |
| DIXDC1 | 0.924 | 0.807 | 0.81 | inactive |
| FOXI1 | -0.233 | -0.35 | -0.264 | inactive |
| SPRR2E | 1.2 | 1.87 | 1.91 | inactive |
| OR10K2 | -0.698 | -0.819 | -1.36 | inactive |
| CYP27C1 | 2.05 | 1.79 | 2.52 | active |
| ATP4B | 2.22 | 1.45 | 1.83 | inactive |
| LOC441372 (retired record) | -0.963 | -0.861 | -0.74 | inactive |
| SFTA3 | 1.06 | 1.02 | 1.44 | inactive |
| LOC440191 (retired record) | 0.21 | -0.202 | -0.219 | inactive |
| NLRP13 | -0.041 | -0.609 | -0.645 | inactive |
| MAP2K4 | -0.711 | -1.11 | -0.729 | inactive |
| AADACP1 | 0.309 | 0.146 | 0.0532 | inactive |
| GORAB | -0.231 | -1.04 | -1.08 | inactive |
| CYP2C19 | 0.824 | 0.922 | 0.867 | inactive |
| PYGM | 1.58 | 1.94 | 1.98 | inactive |
